According to publication PMC3789791:
These are yes or no findings as the source states them, for the method shown. Binding seen in cells or lysates may run through a third protein. Some results given as binding are weak or reduced against the parent protein; the word gives no strength. Tags and fused reporters may be left off the sequences shown.

Sequences of proteins named here, by UniProt entry; tags and fusion partners are left off. A change or cut given only in a name is not applied to a line headed by its entry. A line that says so, or that is headed by a name, gives the form on record, which may keep a tag or linker. Residues count along the entry.
UniProt P38111: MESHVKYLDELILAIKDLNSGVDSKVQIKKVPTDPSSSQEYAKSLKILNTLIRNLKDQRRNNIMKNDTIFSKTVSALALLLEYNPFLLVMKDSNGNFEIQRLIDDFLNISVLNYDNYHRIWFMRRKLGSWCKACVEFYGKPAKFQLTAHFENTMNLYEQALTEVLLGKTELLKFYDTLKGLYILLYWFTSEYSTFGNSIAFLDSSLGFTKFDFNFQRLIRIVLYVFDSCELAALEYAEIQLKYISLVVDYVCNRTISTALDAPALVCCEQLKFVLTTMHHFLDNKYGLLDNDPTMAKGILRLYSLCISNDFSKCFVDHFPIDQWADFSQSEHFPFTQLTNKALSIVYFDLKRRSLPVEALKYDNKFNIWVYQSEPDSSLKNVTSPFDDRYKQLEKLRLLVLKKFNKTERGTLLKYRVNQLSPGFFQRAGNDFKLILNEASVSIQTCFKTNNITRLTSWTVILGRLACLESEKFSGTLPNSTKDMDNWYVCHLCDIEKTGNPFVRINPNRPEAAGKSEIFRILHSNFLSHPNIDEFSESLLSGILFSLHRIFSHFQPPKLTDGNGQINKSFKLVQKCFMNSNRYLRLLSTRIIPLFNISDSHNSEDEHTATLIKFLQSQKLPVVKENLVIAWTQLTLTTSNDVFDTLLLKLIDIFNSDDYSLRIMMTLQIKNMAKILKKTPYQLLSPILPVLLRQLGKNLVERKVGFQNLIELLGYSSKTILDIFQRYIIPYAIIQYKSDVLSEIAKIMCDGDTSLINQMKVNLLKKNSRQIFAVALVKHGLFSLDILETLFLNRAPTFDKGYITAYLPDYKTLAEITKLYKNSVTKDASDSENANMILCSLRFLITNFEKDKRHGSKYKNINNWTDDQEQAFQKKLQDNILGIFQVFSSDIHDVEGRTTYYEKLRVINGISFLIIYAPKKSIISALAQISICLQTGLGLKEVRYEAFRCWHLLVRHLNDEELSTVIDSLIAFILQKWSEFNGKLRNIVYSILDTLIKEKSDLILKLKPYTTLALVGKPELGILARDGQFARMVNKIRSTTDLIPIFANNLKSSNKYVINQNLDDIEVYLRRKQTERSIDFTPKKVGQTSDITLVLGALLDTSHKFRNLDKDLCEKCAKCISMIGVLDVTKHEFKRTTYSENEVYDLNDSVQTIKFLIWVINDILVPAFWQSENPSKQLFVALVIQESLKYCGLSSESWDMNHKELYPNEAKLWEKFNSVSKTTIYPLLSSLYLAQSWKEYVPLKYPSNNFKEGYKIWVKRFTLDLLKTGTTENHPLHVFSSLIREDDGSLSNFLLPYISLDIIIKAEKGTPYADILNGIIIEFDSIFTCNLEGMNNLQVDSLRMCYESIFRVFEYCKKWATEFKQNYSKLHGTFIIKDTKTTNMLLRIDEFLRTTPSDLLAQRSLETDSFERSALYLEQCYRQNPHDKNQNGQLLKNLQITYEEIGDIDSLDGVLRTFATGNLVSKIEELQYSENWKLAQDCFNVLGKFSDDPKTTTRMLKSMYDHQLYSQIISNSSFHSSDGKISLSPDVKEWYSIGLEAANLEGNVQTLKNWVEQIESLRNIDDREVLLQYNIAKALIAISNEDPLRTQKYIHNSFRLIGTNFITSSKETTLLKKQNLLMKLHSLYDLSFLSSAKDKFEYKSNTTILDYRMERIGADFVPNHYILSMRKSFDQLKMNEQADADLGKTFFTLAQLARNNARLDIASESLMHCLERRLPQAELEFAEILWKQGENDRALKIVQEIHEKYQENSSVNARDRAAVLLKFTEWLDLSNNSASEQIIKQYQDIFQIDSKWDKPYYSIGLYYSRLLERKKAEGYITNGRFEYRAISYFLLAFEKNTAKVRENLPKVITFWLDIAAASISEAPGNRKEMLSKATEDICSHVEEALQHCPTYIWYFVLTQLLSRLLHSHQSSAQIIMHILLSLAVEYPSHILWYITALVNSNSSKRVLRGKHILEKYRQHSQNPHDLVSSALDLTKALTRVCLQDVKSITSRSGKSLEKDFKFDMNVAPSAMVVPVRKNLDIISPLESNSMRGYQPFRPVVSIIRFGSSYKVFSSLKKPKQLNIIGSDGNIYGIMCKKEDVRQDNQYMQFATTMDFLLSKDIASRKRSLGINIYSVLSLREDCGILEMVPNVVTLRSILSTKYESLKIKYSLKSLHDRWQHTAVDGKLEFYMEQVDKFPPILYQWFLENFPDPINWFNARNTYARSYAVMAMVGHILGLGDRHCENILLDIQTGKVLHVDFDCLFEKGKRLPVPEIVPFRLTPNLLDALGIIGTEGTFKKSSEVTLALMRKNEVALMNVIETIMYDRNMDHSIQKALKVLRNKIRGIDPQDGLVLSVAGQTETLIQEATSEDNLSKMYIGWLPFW
Flag^5-Mec1-Δ1: residues 1-2367 of P38111
Flag^5-Mec1-2369G (P38111, form named): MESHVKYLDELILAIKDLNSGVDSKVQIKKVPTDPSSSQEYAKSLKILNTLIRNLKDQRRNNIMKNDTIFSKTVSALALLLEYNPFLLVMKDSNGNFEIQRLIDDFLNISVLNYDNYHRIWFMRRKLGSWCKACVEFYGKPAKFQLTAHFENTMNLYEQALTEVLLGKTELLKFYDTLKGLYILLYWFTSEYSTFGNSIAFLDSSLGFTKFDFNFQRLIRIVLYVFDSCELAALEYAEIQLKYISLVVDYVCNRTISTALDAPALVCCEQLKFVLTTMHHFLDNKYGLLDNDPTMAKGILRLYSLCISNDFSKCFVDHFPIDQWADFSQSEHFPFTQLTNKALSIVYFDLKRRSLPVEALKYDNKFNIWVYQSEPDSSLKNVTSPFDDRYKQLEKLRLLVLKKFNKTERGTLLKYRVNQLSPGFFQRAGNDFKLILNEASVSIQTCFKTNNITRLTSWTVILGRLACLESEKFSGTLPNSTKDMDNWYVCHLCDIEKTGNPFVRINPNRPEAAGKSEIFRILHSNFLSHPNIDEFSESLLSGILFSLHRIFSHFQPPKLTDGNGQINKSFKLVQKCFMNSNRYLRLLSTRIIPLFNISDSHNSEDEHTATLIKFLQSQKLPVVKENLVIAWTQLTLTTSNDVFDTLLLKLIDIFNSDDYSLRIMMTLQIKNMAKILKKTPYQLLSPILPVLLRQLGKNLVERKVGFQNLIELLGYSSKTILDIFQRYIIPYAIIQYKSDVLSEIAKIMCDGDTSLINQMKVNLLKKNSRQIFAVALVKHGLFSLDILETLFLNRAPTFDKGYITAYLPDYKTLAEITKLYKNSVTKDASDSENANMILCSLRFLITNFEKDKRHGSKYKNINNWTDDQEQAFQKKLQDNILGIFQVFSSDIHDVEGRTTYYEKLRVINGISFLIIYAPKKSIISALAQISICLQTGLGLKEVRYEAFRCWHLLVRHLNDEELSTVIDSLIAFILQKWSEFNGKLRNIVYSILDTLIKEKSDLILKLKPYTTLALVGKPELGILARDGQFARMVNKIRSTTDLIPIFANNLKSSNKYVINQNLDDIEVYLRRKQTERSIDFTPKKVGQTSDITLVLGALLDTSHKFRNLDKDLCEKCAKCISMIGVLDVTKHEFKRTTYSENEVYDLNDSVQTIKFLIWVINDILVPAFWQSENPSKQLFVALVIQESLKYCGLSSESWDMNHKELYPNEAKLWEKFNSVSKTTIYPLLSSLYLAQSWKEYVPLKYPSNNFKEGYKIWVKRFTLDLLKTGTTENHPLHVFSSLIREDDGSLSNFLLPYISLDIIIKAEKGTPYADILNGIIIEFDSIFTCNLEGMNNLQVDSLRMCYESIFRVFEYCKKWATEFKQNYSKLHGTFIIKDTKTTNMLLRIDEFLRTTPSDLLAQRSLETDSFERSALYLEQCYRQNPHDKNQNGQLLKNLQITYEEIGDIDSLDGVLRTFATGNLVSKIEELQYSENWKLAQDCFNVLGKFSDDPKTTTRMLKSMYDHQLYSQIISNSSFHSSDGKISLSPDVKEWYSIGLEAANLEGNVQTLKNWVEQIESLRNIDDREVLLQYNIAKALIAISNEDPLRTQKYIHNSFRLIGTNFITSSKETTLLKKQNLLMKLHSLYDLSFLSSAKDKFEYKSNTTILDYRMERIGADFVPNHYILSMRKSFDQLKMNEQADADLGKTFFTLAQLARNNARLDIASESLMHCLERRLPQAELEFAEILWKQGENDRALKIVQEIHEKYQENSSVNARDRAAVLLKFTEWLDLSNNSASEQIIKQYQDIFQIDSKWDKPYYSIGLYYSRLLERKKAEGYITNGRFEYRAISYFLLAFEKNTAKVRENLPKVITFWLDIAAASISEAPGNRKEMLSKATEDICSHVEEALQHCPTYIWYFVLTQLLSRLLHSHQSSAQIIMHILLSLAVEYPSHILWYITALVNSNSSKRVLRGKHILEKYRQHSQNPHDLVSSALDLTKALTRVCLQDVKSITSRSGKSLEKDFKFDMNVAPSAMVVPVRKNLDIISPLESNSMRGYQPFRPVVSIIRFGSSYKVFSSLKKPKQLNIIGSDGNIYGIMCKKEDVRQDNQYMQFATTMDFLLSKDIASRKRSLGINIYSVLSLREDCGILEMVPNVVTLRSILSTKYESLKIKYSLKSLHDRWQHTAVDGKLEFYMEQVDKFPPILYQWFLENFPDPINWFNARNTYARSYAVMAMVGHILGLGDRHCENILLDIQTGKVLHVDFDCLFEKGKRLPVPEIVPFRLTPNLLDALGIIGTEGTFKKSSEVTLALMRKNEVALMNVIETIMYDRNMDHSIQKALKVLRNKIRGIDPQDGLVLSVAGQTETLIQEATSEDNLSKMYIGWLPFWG

Key:
Experiment in all cases: co-IP; anti-Flag M2 magnetic beads on 3 mg yeast extract of strains with a Flag^5-tagged Mec1 derivative and YCplac111-myc^9-Lcd1; IP buffer 50 mM HEPES pH 7.5, 100 mM KCl, 0.1 mM EDTA, 0.2% Tween20, 1.0 mM dithiothreitol, 4°, 2.5 hr; blots with anti-Flag and anti-myc
[1] = target: Flag^5-Mec1-W2368A (S. cerevisiae) (UniProt P38111)
[2] = target: Flag^5-Mec1-Δ1 (S. cerevisiae) (UniProt P38111)
[3] = target: Flag^5-Mec1-2369G (S. cerevisiae) (UniProt P38111)
[4] = target: Flag^5-Mec1 (wild-type) (S. cerevisiae) (UniProt P38111)

Measured: binding

B1: myc^9-tagged Lcd1/Ddc2 (protein, UniProt Q04377 1-747)
chain: MRRETVGEFSSDDDDDILLELGTRPPRFTQIPPSSAALQTQIPTTLEVTTTTLNNKQSKNDNQLVNQLNKAQGEASMLRDKINFLNIEREKEKNIQAVKVNELQVKHLQELAKLKQELQKLEDEKKFLQMEARGKSKREVITNVKPPSTTLSTNTNTITPDSSSVAIEAKPQSPQSKKRKISDNLLKKNMVPLNPNRIIPDETSLFLESILLHQIIGADLSTIEILNRLKLDYITEFKFKNFVIAKGAPIGKSIVSLLLRCKKTLTLDRFIDTLLEDIAVLIKEISVHPNESKLAVPFLVALMYQIVQFRPSATHNLALKDCFLFICDLIRIYHHVLKVPIHESNMNLHVEPQIFQYELIDYLIISYSFDLLEGILRVLQSHPKQTYMEFFDENILKSFEFVYKLALTISYKPMVNVIFSAVEVVNIITSIILNMDNSSDLKSLISGSWWRDCITRLYALLEKEIKSGDVYNENVDTTTLHMSKYHDFFGLIRNIGDNELGGLISKLIYTDRLQSVPRVISKEDIGMDSDKFTAPIIGYKMEKWLLKLKDEVLNIFENLLMIYGDDATIVNGEMLIHSSKFLSREQALMIERYVGQDSPNLDLRCHLIEHTLTIIYRLWKDHFKQLREEQIKQVESQLIMSLWRFLVCQTETVTANEREMRDHRHLVDSLHDLTIKDQASYYEDAFEDLPEYIEEELKMQLNKRTGRIMQVKYDEKFQEMARTILESKSFDLTTLEEADSLYISMGL
binds: all assays above
